{
  "source": "PubChem BioAssay AID504444",
  "about": "(National Center for Advancing Translational Sciences (NCATS), 2011)",
  "note": "Hit rate of the full screen: of about 360,000 compounds, about 7,500 (2.1%) were called active. Inconclusive means that the source gave no clear call. Such entries were picked first, then a sample of the others. Calls follow the shape of the dose curve; as a rule, active = well fitted inhibition curve with a large enough effect; inconclusive = small, poorly fitted or top-dose-only effect, or effect the other way; inactive = flat fitted curve, though single readings scatter. Potencies of inconclusive entries are doubtful fits and often do not repeat. % is scaled to controls: 0 for no effect and ±100 for the full control effect; potency is read from the fitted curve at half-maximal effect.",
  "data": [
    {"test": "Nrf2 qHTS screen for inhibitors; also: nearly all actives have a fitted effect of over 60% in size", "details": "A549 ARE-Fluc reporter, luciferase luminescence, 18-24 h; activity change, negative = inhibition: at 46 µM (top of the series)", "in_short": "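Concentration-response testing used A549 ARE_Fluc cells at 5000 cells/well. Following an 18-24 h compound incubation, viability was read by fluorescence (Ex 405/Em 525) and luciferase output by luminescence.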", "values": [
      {"smiles": "O=C(Cn1c(=O)c2cccn2c2ccccc21)NCc1ccccc1F", "Potency": "inconclusive: 29.1 µM [activator, single point]"},
      {"smiles": "COc1ccc(Nc2nnc(SCC(=O)NC(=O)Nc3ccc4c(c3)OCCO4)s2)cc1", "Potency": "inconclusive: 29.1 µM [falling, single point]"},
      {"smiles": "COC(=O)c1c(C)[nH]c(C(=O)C(C)OC(=O)C2CC2)c1C", "note": "(stereo not given)", "Potency": "inconclusive: 29.1 µM [falling, single point]"},
      {"smiles": "CCOc1ccccc1C(=O)N[C@H](C(=O)OCc1cc(=O)oc2cc(C)ccc12)C(C)C", "Potency": "inconclusive: 10.3 µM [falling, partial curve]"},
      {"smiles": "Cc1cccc(N(CC(=O)NCCSCc2ccccc2)S(=O)(=O)c2ccccc2)c1C", "Potency": "inconclusive: 29.1 µM [falling, single point]"},
      {"smiles": "Oc1ccc2ccccc2c1C=NCc1ccccc1", "Potency": "inactive"},
      {"smiles": "CCn1c(Oc2ccccc2F)nc2c1c(=O)n(C)c(=O)n2C", "Potency": "inconclusive: 9.2 µM [falling, partial curve, poor fit]"},
      {"smiles": "CCCN(CC(=O)Nc1cc(Cl)ccc1Cl)C(=O)/C=C/c1cc(OC)ccc1OC", "Potency": "inconclusive: 14.6 µM [falling, partial curve, poor fit]"},
      {"smiles": "CCCn1nnc(NCc2ccc(OCc3cccs3)c(OC)c2)n1", "Potency": "active: 8.2 µM"},
      {"smiles": "O=C(NNC(=O)c1ccccc1O)c1ccc(Cl)c(S(=O)(=O)N2CCc3ccccc32)c1", "Potency": "inconclusive: 29.1 µM [falling, single point]"},
      {"smiles": "COc1ccc(C2=NOC(C(=O)NCCCn3ccnc3)C2)cc1", "note": "(stereo not given)", "Potency": "inconclusive: 20.6 µM [activator, single point]"},
      {"smiles": "COc1ccccc1C(=O)NNC(=O)c1nn(Cc2ccccc2)c(=O)c2ccccc12", "Potency": "inconclusive: 29.1 µM [falling, single point]"},
      {"smiles": "CSc1nc2nc(C(F)(F)F)cc(-c3ccccc3)n2n1", "Potency": "inactive"},
      {"smiles": "O=c1ccn(-c2cccc(C(F)(F)F)c2)nc1-c1ccn(-c2cccc(Cl)c2)n1", "Potency": "inconclusive: 18.4 µM [falling, single point]"},
      {"smiles": "COC(=O)c1ccc(CNC(=O)c2coc3ccccc3c2=O)cc1", "Potency": "inactive"},
      {"smiles": "O=C1CN(C(=O)CSc2nnnn2-c2ccc(Cl)cc2)c2ccccc2N1", "Potency": "inconclusive: 25.9 µM [falling, single point]"},
      {"smiles": "O=C(Nc1ccc(F)cc1)c1cccc(N2C(=O)C3C4C=CC(C5CC45)C3C2=O)c1", "note": "(stereo not given)", "Potency": "active: 14.6 µM"},
      {"smiles": "COc1ccc(CNC(=O)Cc2ccc(NC(=O)N3CCSc4ncccc43)cc2)cc1OC", "Potency": "inconclusive: 29.1 µM [falling, partial curve, poor fit]"},
      {"smiles": "Cc1ccc(C(NC(=O)NN2CCN(C)CC2)C(Cl)Cl)cc1F", "note": "(stereo not given)", "Potency": "inconclusive: 10.3 µM [activator, partial curve, poor fit]"},
      {"smiles": "Cc1cccc(NC(=O)C2CCN(S(=O)(=O)c3cccc4nsnc34)CC2)n1", "Potency": "inconclusive: 14.1 µM [falling, partial curve, poor fit]"},
      {"smiles": "COC(=O)c1cc2oc3ccccc3c2n1CC(=O)Nc1ccc(C)c(F)c1", "Potency": "inactive"},
      {"smiles": "COC(=O)CCN(C(=O)c1ccc(N2CCCCC2)c([N+](=O)[O-])c1)c1ccccn1", "Potency": "inactive"},
      {"smiles": "CCCN1C(=O)c2ccccc2NC1c1ccc(OC)c(CSc2ccccn2)c1", "note": "(stereo not given)", "Potency": "inconclusive: 23.1 µM [falling, single point]"},
      {"smiles": "COc1cc(OC)c(NC(=O)c2cc3c(=O)oc4ccc(C)cc4c3s2)cc1Cl", "Potency": "inactive"},
      {"smiles": "COc1ccc(C)cc1Nc1n[n+](-c2ccccc2)c(-c2cc(OC)c(OC)cc2Br)s1", "Potency": "inconclusive: 29.1 µM [falling, single point]"},
      {"smiles": "COc1ccc(OC)c(/C=N/NC(=O)CC2C(=O)NN=C2C)c1", "note": "(stereo not given)", "Potency": "inactive"},
      {"smiles": "CCN(CC)S(=O)(=O)c1ccc(C(=O)C(C#N)c2ccccn2)cc1", "note": "(stereo not given)", "Potency": "inconclusive: 1.84 µM [falling, full curve]"},
      {"smiles": "O=C(COC(=O)c1ccc(Br)cc1)Nc1ccccc1Br", "Potency": "inconclusive: 7.31 µM [activator, partial curve]"},
      {"smiles": "O=C(CNCc1ccccn1)Nc1cc(S(=O)(=O)N2CCCCC2)ccc1Cl", "Potency": "inconclusive: 29.1 µM [falling, single point]"},
      {"smiles": "CC(=O)c1cccc(NC(=O)c2ccc(OCc3c(C)noc3C)cc2)c1", "Potency": "inconclusive: 18.4 µM [falling, single point]"},
      {"smiles": "O=C(COC(=O)c1cc([N+](=O)[O-])ccc1N1CCOCC1)c1ccc(OC(F)F)cc1OC(F)F", "Potency": "inconclusive: 23.1 µM [falling, single point]"},
      {"smiles": "O=C(CCCN1C(=O)/C(=C/c2cccs2)SC1=S)NNC(=O)c1ccccc1O", "Potency": "inconclusive: 16.4 µM [falling, partial curve, poor fit]"},
      {"smiles": "COC(=O)C1=C(NC(=O)COc2ccc(Cl)cc2Cl)CCS1", "Potency": "inconclusive: 20.6 µM [falling, partial curve, poor fit]"},
      {"smiles": "O=C(c1cc(-c2ccc(Cl)cc2)on1)N1CCOCC1", "Potency": "inconclusive: 0.259 µM [activator, full curve]"},
      {"smiles": "Cc1cccc(C(=O)O/N=C(\\N)c2ccc(Br)cc2)c1", "Potency": "inconclusive: 1.16 µM [activator, full curve, poor fit]"},
      {"smiles": "N#Cc1c(C#N)c(-c2ccccc2)n(-c2ccccc2)c1N", "Potency": "inconclusive: 13 µM [falling, partial curve, poor fit]"},
      {"smiles": "O/N=C(\\C[n+]1ccccc1)c1ccc(Br)cc1", "Potency": "active: 3.66 µM"},
      {"smiles": "COC(=O)CSc1ncc(S(=O)(=O)c2ccccc2)c(=O)[nH]1", "Potency": "inconclusive: 7.31 µM [falling, single point]"},
      {"smiles": "COc1cc(OC)cc(C(=O)NCC(=O)Nc2ccc(-c3ccccc3)cc2)c1", "Potency": "inconclusive: 18.4 µM [activator, partial curve]"},
      {"smiles": "Cc1ccc(N2C(=O)CSC23C(=O)N(Cc2ccccc2F)c2ccccc23)cc1F", "note": "(stereo not given)", "Potency": "inconclusive: 29.1 µM [falling, single point]"},
      {"smiles": "O=c1/c(=C\\c2cccn2-c2ccccc2)sc2nc3ccccc3n12", "Potency": "inconclusive: 11.6 µM [activator, partial curve]"},
      {"smiles": "Cc1ccccc1NC(=O)CSc1cn(CC(=O)N2CCCCCC2)c2ccccc12", "Potency": "inactive"},
      {"smiles": "CCN1CCN(c2nc3ccccn3c(=O)c2C=O)CC1", "Potency": "inconclusive: 20.6 µM [activator, partial curve, poor fit]"},
      {"smiles": "Fc1ccc2c(c1)C1C=CCC1C(c1cc3c(cc1Br)OCO3)N2", "note": "(stereo not given)", "Potency": "inconclusive: 14.6 µM [falling, single point]"},
      {"smiles": "Cc1ccccc1NC(=O)c1sc2nc3c(c(-c4ccco4)c2c1N)CCCC3", "Potency": "inconclusive: 2.31 µM [falling, full curve, poor fit]"},
      {"smiles": "O=C(COC(=O)c1cc(=O)[nH]c2ccccc12)Nc1ccc(F)cc1F", "Potency": "inconclusive: 5.8 µM [activator, full curve]"},
      {"smiles": "NC(=O)C1CCN(C(c2ccccc2)c2nnnn2C2CCCC2)CC1", "note": "(stereo not given)", "Potency": "inactive"},
      {"smiles": "O=c1[nH]c(=O)n(-c2ccccc2)c2c1C(C(F)(F)F)(C(F)(F)F)N=C(CCC1CCCCC1)N2", "Potency": "active: 18.4 µM"},
      {"smiles": "COc1ccc2nc(SCC(=O)NCC(F)(F)F)[nH]c2c1", "Potency": "inconclusive: 9.2 µM [activator, partial curve, poor fit]"},
      {"smiles": "CCCCCC(=O)Nc1ccc2oc(-c3ccncc3)nc2c1", "Potency": "inconclusive: 14.6 µM [falling, partial curve, poor fit]"},
      {"smiles": "COc1ccc(NS(=O)(=O)c2ccc(NC(=O)c3ccccc3)cc2)nn1", "Potency": "inconclusive: 20.6 µM [falling, single point]"},
      {"smiles": "Cc1ccc(Sc2c(CO)c(-c3ccccc3)nn2C)cc1", "Potency": "inconclusive: 29.1 µM [falling, single point]"},
      {"smiles": "CCOc1ccc(NC(=O)Cn2c(=O)n(-c3cccc(Cl)c3)c(=O)c3c2c2cc(C)ccc2n3C)cc1", "activity change, negative = inhibition": "inactive: 12.6% [at 9.27 µM]"},
      {"smiles": "CC(=O)C(Sc1nc(N(C)C)nc(N(C)C)n1)C(=O)Nc1ccccc1", "note": "(stereo not given)", "Potency": "inconclusive: 20.6 µM [activator, single point]"},
      {"smiles": "CCc1cc(C(=O)N(C)CC(=O)Nc2c(Cl)cccc2Cl)sc1C", "Potency": "inactive"},
      {"smiles": "CCSc1nnc(-c2ccc(S(=O)(=O)NCc3cccs3)cc2)o1", "Potency": "inconclusive: 23.1 µM [falling, partial curve, poor fit]"},
      {"smiles": "CCC(CO)Oc1cc(NCc2ccccc2C(F)(F)F)c2ncn(C(C)C)c2c1", "note": "(stereo not given)", "Potency": "inconclusive: 20.6 µM [falling, single point]"},
      {"smiles": "O=c1[nH]c(CSc2nnnn2-c2ccc(Cl)cc2)nc2ccccc12", "Potency": "inconclusive: 23.1 µM [falling, partial curve, poor fit]"},
      {"smiles": "COc1ccccc1C1=CC(=O)CCC1", "Potency": "inconclusive: 3.26 µM [activator, full curve, poor fit]"},
      {"smiles": "COCCNC(=O)C(c1ccc(C)cc1)N(C(=O)CCC(=O)Nc1ccccn1)c1ccc(F)cc1", "note": "(stereo not given)", "Potency": "inactive"},
      {"smiles": "CC1CCN(C(=O)c2ccccc2NC(=O)Cc2ccccc2)CC1", "Potency": "inconclusive: 13 µM [activator, partial curve, poor fit]"},
      {"smiles": "COc1cc(/C=N/NC(=O)c2cccc([N+](=O)[O-])c2)ccc1OC(=O)c1ccco1", "Potency": "inconclusive: 20.6 µM [falling, partial curve, poor fit]"},
      {"smiles": "c1ccc(C(c2ccccc2)N2CCN(C(c3ccccn3)c3nnnn3C3CCCC3)CC2)cc1", "note": "(stereo not given)", "Potency": "inactive"},
      {"smiles": "Cc1cccc(OCC(=O)NCC(=O)N/N=C/c2cc(Br)cc(Br)c2O)c1", "Potency": "inconclusive: 23.1 µM [falling, single point]"},
      {"smiles": "COc1ccc(C(=O)NCC(c2cccnc2)N2CCN(c3ccccc3)CC2)cc1", "note": "(stereo not given)", "Potency": "inconclusive: 4.11 µM [falling, partial curve, poor fit]"}
    ]}
  ]
}
